PubChem BioAssay AID493014 (National Center for Advancing Translational Sciences (NCATS), 2011)
“And” between values parts separate entries of the source, which are not always exact repeats. Equal values may be shown once. Some of the results follow. Shown are side measurements of this screen, not its main read-out; they come without a call. The list favours compounds with an active or inconclusive main result. Words in brackets tell the shape of the fitted curve; partial curves, single points and poor fits give uncertain potencies.

Assay: qHTS Assay to Find Inhibitors of Chronic Active B-Cell Receptor Signaling
Conditions: ABC-DLBCL IkBa-CBG/CBR reporter, luminescence ratio (green luciferase fused to IkBa over red control in TMD8 lymphoma cells), 4 h
How it was run: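 TMD8 ABC-DLBCL cells carrying doxycycline-inducible green luciferase fused to IkappaBalpha plus unfused red luciferase were exposed to compounds (up to 46 uM) for 4 hrs at 37C. Activity came from the overlap-corrected green/red luminescence ratio.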

[1] = measured here: CBR red luminescence, cell number
[2] = measured here: IkBa-CBG green luminescence

SMILES: COc1ccc(CCNC(=O)CCN2N=C(c3ccccc3)CCC2=O)cc1OC
- AC50 [1]: 15.8 µM [rising, single point]

SMILES: Cc1ccc(/C(N)=N/OC(=O)CCc2ccccc2)cc1
- AC50 [1]: 10 µM [rising, partial curve]

SMILES: O=c1c2ccccc2nnn1CSc1ccc2ccccc2n1
- AC50 [1]: 25.9 µM [falling, single point]

SMILES: COc1ccc(CNC(=O)CN2CCN(c3ccccc3O)CC2)cc1OC
- AC50 [1]: 3.16 µM [rising, single point]

SMILES: CCCOc1ccc2cc(-c3ccccn3)c(=O)oc2c1
- AC50 [1]: 3.66 µM [falling, partial curve, poor fit]

SMILES: O=C(OCCN1CCOCC1)c1ccccc1
- AC50 [1]: 12.6 µM [rising, partial curve, poor fit]

SMILES: CC(C)(C)c1ccc(/C=N/Nc2ccc(C(=O)O)cc2)cc1
- AC50 [1]: 0.0731 µM [falling, full curve]

SMILES: COc1cccc(C(=O)NN/C(C)=C/C(=O)C(F)(F)C(F)(F)C(F)(F)F)c1
- AC50 [1]: 2.06 µM [falling, full curve]

SMILES: O=C(N/N=C/c1ccccn1)c1ccc(Cl)c(Cl)c1
- AC50 [1]: 3.55 µM [rising, single point]
- AC50 [2]: 4.47 µM [falling, single point]

SMILES: CCOC(=O)C1CCCN(C2CC(=O)N(c3cccc(C)c3)C2=O)C1 (stereo not drawn)
- AC50 [1]: 0.708 µM [falling, partial curve, poor fit]

SMILES: COc1ccc(CCNC(=O)c2cc(-c3ccccc3)on2)cc1OC
- AC50 [1]: 29.1 µM [falling, single point]

SMILES: O=C(NCCC1=CCCCC1)c1coc(=O)c(Br)c1
- AC50 [1]: 1.78 µM [rising, partial curve]
- AC50 [2]: 14.1 µM [falling, partial curve, poor fit]

SMILES: CS(=O)(=O)N(CC(=O)Nc1ccccc1Sc1ccccc1)C1CCCCC1
- AC50 [1]: 0.00651 µM [falling, full curve]

SMILES: CC1=C(C(N)=O)C(c2cccc(OCc3ccccc3)c2)n2nnnc2N1 (stereo not drawn)
- AC50 [1]: 0.891 µM [falling, full curve, poor fit]

SMILES: COc1ccc(N(C)C(=O)c2ccc3c(Cl)c4c(nc3c2)CCCC4)c(OC)c1
- AC50 [1]: 10 µM [falling, partial curve]

SMILES: O=S(=O)(c1ccc2c(c1)C(=NO)c1cc(S(=O)(=O)N3CCCCC3)ccc1-2)N1CCCCC1
- AC50 [1]: 0.501 µM [rising, full curve, poor fit]

SMILES: O=C(Oc1ccc2ccc(OC(=O)N3CCOCC3)cc2c1)N1CCOCC1
- AC50 [1]: 20.6 µM [rising, single point]
- AC50 [2]: 29.1 µM [falling, partial curve, poor fit]

SMILES: Cc1ccccc1NC(=O)c1cc2ccccc2o1
- AC50 [1]: 3.98 µM [falling, partial curve] and 14.1 µM [falling, partial curve, poor fit]

SMILES: COc1ccc(-c2n(Cc3ccccc3)c3ccccc3[n+]2Cc2ccccc2)cc1
- AC50 [1]: 7.08 µM [falling, partial curve]

SMILES: N#Cc1nc(N2CCCCC2)nc(N2CCOCC2)n1
- AC50 [2]: 8.2 µM [falling, partial curve, poor fit]

SMILES: O=C(CCc1ccccc1)N/N=C\C1CC=CCC1 (stereo not drawn)
- AC50 [1]: 0.891 µM [rising, partial curve, poor fit]

SMILES: C/C(Cl)=C/Cn1c(SCc2ccc(Cl)cc2)nc2c1c(=O)[nH]c(=O)n2C
- AC50 [1]: 4.11 µM [rising, partial curve, poor fit]

SMILES: CC(=O)N1CCN(c2nc(-c3cccs3)nc3ccccc23)CC1
- AC50 [1]: 8.91 µM [falling, partial curve]

SMILES: CCOc1ccccc1Nc1nnc(SCC(=O)N2CCCC2)s1
- AC50 [1]: 14.6 µM [falling, partial curve, poor fit]

SMILES: CCN(CC)CCNC(=O)c1ccc(NC(=O)c2cn(-c3ccccc3)nc2-c2cccs2)cc1
- AC50 [1]: 2.82 µM [falling, partial curve, poor fit]

SMILES: CC(=O)Nc1ccc(S(=O)(=O)N(C)c2ccc(O)cc2)cc1
- AC50 [1]: 3.16 µM [falling, full curve, poor fit]

SMILES: Cc1ccc(NC(=O)c2ccc(Cl)c(N3C(=O)C=CC3=O)c2)cc1
- AC50 [1]: 15.8 µM [falling, partial curve, poor fit]

SMILES: Fc1ccccc1/C=C1\CCCC2=C1Nc1nnnn1C2c1ccccc1F (stereo not drawn)
- AC50 [1]: 35.5 µM [falling, single point]

SMILES: O=C(CNC(=S)N(Cc1ccccc1)Cc1ccccc1F)NCCc1ccc(Cl)cc1
- AC50 [1]: 35.5 µM [falling, single point]

SMILES: O=C(COC(=O)/C=C/c1cn(-c2ccccc2)nc1-c1cccnc1)Nc1ccc(Cl)cc1Cl
- AC50 [1]: 18.4 µM [falling, single point]

SMILES: O=[N+]([O-])c1cc(/C=N/O)ccc1Sc1ccccc1
- AC50 [1]: 0.326 µM [rising, full curve, poor fit]
- AC50 [2]: 7.31 µM [falling, partial curve]

SMILES: CCO[C@@H]1OC(C(=O)NCc2ccccc2)=C[C@H](c2coc3ccccc3c2=O)[C@H]1CCCO
- AC50 [1]: 11.2 µM [rising, partial curve]

SMILES: COc1ccc(C2CN=NC2C(=O)c2ccccc2)cc1 (stereo not drawn)
- AC50 [1]: 15.8 µM [rising, single point]

SMILES: Cc1ccc(NC(=O)CN(C)C(=O)Cn2ncc(Cl)c(Cl)c2=O)cc1
- AC50 [1]: 5.8 µM [falling, full curve]

SMILES: COc1cc(/C=N\NC(=O)c2cccc(Cl)c2)ccc1Oc1ccc([N+](=O)[O-])cn1
- AC50 [1]: 7.08 µM [falling, partial curve]

SMILES: CC1(CC(=O)N/N=C/c2cc3c(cc2Br)OCO3)OCCO1
- AC50 [1]: 14.1 µM [falling, partial curve, poor fit]

SMILES: O=C(O)COc1ccccc1/C=C1\SC(=Nc2ccc(F)cc2)N(c2ccc(F)cc2)C1=O
- AC50 [1]: 20 µM [falling, partial curve]

SMILES: CCNC(=S)N/N=C/c1ccc(-c2ccccc2)o1
- AC50 [1]: 0.366 µM [rising, full curve, poor fit]

SMILES: COc1ccccc1OCCNC(=O)CN(c1cccc(C)c1)S(=O)(=O)c1ccccc1
- AC50 [1]: 8.91 µM [falling, partial curve, poor fit]
